Source: PMC5693993
No constants are given. Whether binding was seen depends on the method and setting. In cells and extracts the contact can be indirect. A yes stands for co-enrichment or nearness to the bait. Other partners may have been found. Where a sequence is shown, tags or fusion partners need not be part of it.

B1: Arl8a (protein, UniProt Q8VEH3 1-186)
chain: MIALFNKLLDWFKALFWKEEMELTLVGLQYSGKTTFVNVIASGQFNEDMIPTVGFNMRKITKGNVTIKLWDIGGQPRFRSMWERYCRGVSAIVYMVDAADQEKIEASKNELHNLLDKPQLQGIPVLVLGNKRDLAGALDEKELIEKMNLSAIQDREICCYSISCKEKDNIDITLQWLIQHSKSRRS
B2: Arl8b (protein, UniProt Q9CQW2 1-186)
chain: MLALISRLLDWFRSLFWKEEMELTLVGLQYSGKTTFVNVIASGQFSEDMIPTVGFNMRKVTKGNVTIKIWDIGGQPRFRSMWERYCRGVNAIVYMIDAADREKIEASRNELHNLLDKPQLQGIPVLVLGNKRDLPNALDEKQLIEKMNLSAIQDREICCYSISCKEKDNIDITLQWLIQHSKSRRS

Biological target: T1, Flag-GFP tagged Unc93B1 (mouse) (UniProt Q8VCW4)
T1 sequence: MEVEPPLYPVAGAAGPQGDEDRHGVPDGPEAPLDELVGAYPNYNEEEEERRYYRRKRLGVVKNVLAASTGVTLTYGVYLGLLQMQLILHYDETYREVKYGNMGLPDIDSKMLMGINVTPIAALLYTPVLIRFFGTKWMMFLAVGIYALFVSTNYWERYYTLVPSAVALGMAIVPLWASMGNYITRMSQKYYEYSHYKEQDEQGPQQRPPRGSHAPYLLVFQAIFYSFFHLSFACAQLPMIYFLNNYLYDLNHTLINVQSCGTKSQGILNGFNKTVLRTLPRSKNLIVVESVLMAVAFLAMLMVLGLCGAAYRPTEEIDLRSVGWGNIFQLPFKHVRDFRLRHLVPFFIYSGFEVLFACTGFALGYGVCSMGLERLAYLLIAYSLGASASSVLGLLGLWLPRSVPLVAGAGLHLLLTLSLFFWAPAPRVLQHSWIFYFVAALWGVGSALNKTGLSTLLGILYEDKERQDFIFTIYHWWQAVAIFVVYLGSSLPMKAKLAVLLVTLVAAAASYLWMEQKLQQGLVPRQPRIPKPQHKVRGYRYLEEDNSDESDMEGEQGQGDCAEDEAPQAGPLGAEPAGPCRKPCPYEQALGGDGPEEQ
Experiment: affinity purification with mass spectrometry; Flag-GFP tagged Unc93B1 expressed in BM-cDCs, 1% digitonin lysate, anti-Flag M2 agarose, Flag peptide elution, LC-MS/MS, SAINT analysis; Flag-GFP as negative control

Binder | binding
B1 | binds
B2 | binds
